Binding data for two molecules are collected here from PMC2572998, “Structures of the Signal Recognition Particle Receptor from the Archaeon Pyrococcus furiosus: Implications for the Targeting Step at the Membrane” (PLoS ONE, 2008).

Results are given in words; binding and its absence hold for the method and conditions named.

The target of test [1] is Thermus aquaticus FtsY (signal recognition particle receptor) (Thermus aquaticus) (UniProt P83749). Kind of test: AUC; sedimentation equilibrium, 3 to 9 concentrations at 8500, 12 000, 17 000 and 20 000 rpm, 20°C, 20 mM Hepes pH 7.5, 250 mM KCl, 0.5 mM EDTA, 5 mM MgCl2; single component model; both purified.
For test [2] the target is unchanged. Kind of test: AUC; sedimentation velocity, 50 000 rpm, 20°C, 20 mM Hepes pH 7.5, 250 mM KCl, 0.5 mM EDTA, 5 mM MgCl2; 0.35-3.5 mg/ml (10 to 100 µM); g(s*) time-derivative analysis; both purified.
For test [3] the target is unchanged. The test can be described thus: SAXS; Guinier analysis of the concentration dependence, 2.5 to 25 mg/ml, 15°C, 20 mM Hepes pH 7.5, 250 mM KCl, 0.5 mM EDTA, 5 mM MgCl2, 10 mM DTT; both purified.
In test [4] the target is Pyrococcus furiosus FtsY (signal recognition particle receptor) (Pyrococcus furiosus) (UniProt Q8U051). Kind of test: AUC; sedimentation equilibrium, 3 to 9 concentrations at 8500, 12 000, 17 000 and 20 000 rpm, 20°C, 20 mM Hepes pH 7.5, 250 mM KCl, 0.5 mM EDTA, 5 mM MgCl2; single component model; both purified.
Test [5] shares this target. Kind of test: AUC; sedimentation velocity, 50 000 rpm, 20°C, 20 mM Hepes pH 7.5, 250 mM KCl, 0.5 mM EDTA, 5 mM MgCl2; 0.35-3.5 mg/ml (10 to 100 µM); g(s*) time-derivative analysis; both purified.
Test [6] shares this target. The test can be described thus: SAXS; Guinier analysis of the concentration dependence, 2.5 to 25 mg/ml, 15°C, 20 mM Hepes pH 7.5, 250 mM KCl, 0.5 mM EDTA, 5 mM MgCl2, 10 mM DTT; both purified.

B1: Thermus aquaticus FtsY (signal recognition particle receptor) (protein, UniProt P83749 1-304)
chain: MGFFDRLKAGLAKTRERLLKAIPWGGNLEEVLEELEMALLAADVGLSATEEILQEVRASGRKDLKEAVKEKLVGMLEPDERRATLRKLGFNPQKPKPVEPKGRVVLVVGVNGVGKTTTIAKLGRYYQNLGKKVMFCAGDTFRAAGGTQLSEWGKRLSIPVIQGPEGTDPAALAYDAVQAMKARGYDLLFVDTAGRLHTKHNLMEELKKVKRAIAKADPEEPKEVWLVLDAVTGQNGLEQAKKFHEAVGLTGVIVTKLDGTAKGGVLIPIVRTLKVPIKFVGVGEGPDDLQPFDPEAFVEALLED
For the molecule B1, the results for the binding result in test [1], in test [2] and in test [3] were “no binding (tested: 10 to 100 µM)”, “no binding (tested: 10 to 100 µM)” and “no binding (tested: 2.5 to 25 mg. ml^−1)”, respectively.

B2: Pyrococcus furiosus FtsY (signal recognition particle receptor) (protein, UniProt Q8U051 1-322)
chain: MFGKLREKLKSFVKRVEEEVEKEEEEVEKKGLLDRILTVEIKEKDVDKALDELEIDLLEADVALEVVDALREKIKQKLVGKKVRIGTDKGKIIEEAVKEAVSEILETSRRIDLIEEIRKAEKPYVIMFVGFNGSGKTTTIAKLANWLKNHGFSVVIAASDTFRAGAIEQLEEHAKRIGVKVIKHSYGADPAAVAYDAIQHAKARGIDVVLIDTAGRSETNRNLMDEMKKIARVTKPNLVIFVGDALAGNAIVEQARQFNEAVKIDGIILTKLDADARGGAALSISYVIDAPILFVGVGQGYDDLRPFEKEWFLERIFGEENA
Consider B2, for which the binding result in test [4] is “no binding (tested: 10 to 100 µM)”; in test [5] it was “no binding (tested: 10 to 100 µM)”; in test [6] it was “no binding (tested: 2.5 to 25 mg. ml^−1)”.
